Measured values from US20250074911A1, “MACROCYCLIC BTK INHIBITORS” (Crossfire Oncology Holding B.V., priority 2021, published 2025).
For at least one compound, name, drawing or mass did not settle the structure.

The chains behind the UniProt entries cited, without tags or fusion partners.
UniProt Q06187, whole entry T316A: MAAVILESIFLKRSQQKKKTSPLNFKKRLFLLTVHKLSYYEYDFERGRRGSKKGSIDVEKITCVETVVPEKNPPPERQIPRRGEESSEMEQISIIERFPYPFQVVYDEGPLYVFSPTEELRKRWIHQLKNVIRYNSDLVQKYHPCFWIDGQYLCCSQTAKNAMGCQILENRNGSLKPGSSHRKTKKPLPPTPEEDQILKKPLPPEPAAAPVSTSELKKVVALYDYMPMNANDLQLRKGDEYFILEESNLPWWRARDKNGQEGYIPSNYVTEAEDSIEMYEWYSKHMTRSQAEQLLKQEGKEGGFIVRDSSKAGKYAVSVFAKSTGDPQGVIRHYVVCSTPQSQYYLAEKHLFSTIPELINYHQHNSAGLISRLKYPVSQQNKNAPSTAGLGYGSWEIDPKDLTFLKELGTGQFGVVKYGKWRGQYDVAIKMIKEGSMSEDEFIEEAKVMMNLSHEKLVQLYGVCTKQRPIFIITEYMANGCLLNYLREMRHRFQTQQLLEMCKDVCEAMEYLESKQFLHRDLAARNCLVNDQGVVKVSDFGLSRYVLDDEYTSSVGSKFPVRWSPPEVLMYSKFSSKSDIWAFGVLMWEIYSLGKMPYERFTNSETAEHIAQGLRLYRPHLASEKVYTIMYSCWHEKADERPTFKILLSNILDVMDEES
UniProt Q06187, whole entry C481S: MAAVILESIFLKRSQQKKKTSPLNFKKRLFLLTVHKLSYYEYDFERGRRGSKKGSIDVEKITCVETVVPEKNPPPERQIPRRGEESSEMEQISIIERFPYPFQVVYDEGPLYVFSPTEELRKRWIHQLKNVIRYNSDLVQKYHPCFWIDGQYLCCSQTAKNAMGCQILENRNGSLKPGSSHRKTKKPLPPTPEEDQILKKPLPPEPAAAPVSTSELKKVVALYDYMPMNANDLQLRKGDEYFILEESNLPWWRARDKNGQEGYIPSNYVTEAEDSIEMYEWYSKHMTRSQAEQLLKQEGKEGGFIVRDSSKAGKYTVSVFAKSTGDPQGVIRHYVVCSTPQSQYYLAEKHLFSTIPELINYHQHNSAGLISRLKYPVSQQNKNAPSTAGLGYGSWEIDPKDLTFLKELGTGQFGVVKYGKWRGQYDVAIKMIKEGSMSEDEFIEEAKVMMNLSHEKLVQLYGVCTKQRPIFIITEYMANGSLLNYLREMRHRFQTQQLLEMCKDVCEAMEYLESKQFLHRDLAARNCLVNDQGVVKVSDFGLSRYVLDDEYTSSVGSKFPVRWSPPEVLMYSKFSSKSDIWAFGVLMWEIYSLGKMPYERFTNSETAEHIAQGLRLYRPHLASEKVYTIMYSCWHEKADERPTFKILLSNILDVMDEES

Legend:
[1] = target: BTK T316A (Homo sapiens (Human), UniProt Q06187, T316A); experiment: Binding kinetics measurements (Surface Plasmon Resonance) on BTK T316A; conditions: target residence time, SPR
Method: (§1) Binding kinetics measurements on wt-BTK, BTK […], BTK […], BTK […] and BTK […] (Surface Plasmon Resonance) Streptavidin-coated chips (Cat. No. BR100531), disposables and maintenance kits for Biacore were purchased from Cytiva (Eindhoven, The Netherlands). […] Remaining streptavidin was blocked with biocytin. Immobilization was performed at 4° C. Subsequent assay steps were conducted at 22° C. After changing buffer to Biacore buffer with 1% (v/v) dimethylsulfoxide (DMSO), a pre-run was performed for a period of at least 30 min at a flow rate of 30 μl/min to obtain a stable surface. The kinetic constants of the compounds were determined with single cycle kinetics with five consecutive injections with an increasing compound concentration with ranges of 3.16-316 nM. […] To circumvent problems of mass transport limitation, a flow rate of 30 μl/min was used. A blank run with the same conditions was performed before the compound was injected. The SPR sensorgrams were analyzed with Biacore Evaluation Software by using a method of double referencing. First the reference channel was subtracted from the channel containing immobilized protein. Subsequently, the reference curve obtained with buffer injections was subtracted. […] Target residence for an induced fit model was calculated as described (Tummino and Copeland, 2008).

[2] = target: BTK C481S (Homo sapiens (Human), UniProt Q06187, C481S); experiment: Binding kinetics measurements (Surface Plasmon Resonance) on BTK C481S; conditions: target residence time for BTK C481S, SPR
Method: as §1

[3] = target: wt-BTK (Homo sapiens (Human), UniProt Q06187); experiment: Binding kinetics measurements (Surface Plasmon Resonance) on wt-BTK; conditions: target residence time, SPR
Method: as §1

SMILES: C[C@@H]1CCn2nc(-c3ccc(C(=O)Nc4cc(C(F)(F)F)ccn4)cc3)c3c(N)ncc(c32)/C=C/CCCCC(=O)N1 [Example 54]
- Tau (h) BTK T316A (Act) [1]: 2.24 h
- Tau (h) BTK C418S (Act) [2]: 3.40 h
- Tau (h) wt-BTK (Act) [3]: 3.03 h
